Measured values: publication PMC5717261
No constants are given. Whether binding was seen depends on the method and setting. Some binding calls cover weakened binding; strength is not graded here. Sequences can lack the tags named with a protein.

Sequences of proteins named here, by UniProt entry; tags and fusion partners are left off. Residues count along the entry.
UniProt P11226, residues 21-248: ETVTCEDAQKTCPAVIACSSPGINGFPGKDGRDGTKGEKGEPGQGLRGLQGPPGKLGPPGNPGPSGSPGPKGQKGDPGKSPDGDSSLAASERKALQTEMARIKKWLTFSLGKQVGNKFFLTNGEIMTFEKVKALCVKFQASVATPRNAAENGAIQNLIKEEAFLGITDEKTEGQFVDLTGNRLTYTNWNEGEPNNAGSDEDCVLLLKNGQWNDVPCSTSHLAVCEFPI

Legend:
[1] = molecular target: T1, Recombinant human mammalian tolloid-like-1 (mTLL-1) with a C-terminal 6x-His tag (human) (UniProt O43897); experiment: SPR; competition: C1q or MBL (10 nM) incubated 15 min at room temperature with soluble mTLL-1 or BMP-1 (6-fold molar excess; mTLL-1 60 nM), then injected over immobilised mTLL-1 (3,400 RU) or BMP-1; 50 mM triethanolamine-HCl, 145 mM NaCl, 2 mM CaCl2, 0.005% P20, pH 7.4; both purified
T1 sequence: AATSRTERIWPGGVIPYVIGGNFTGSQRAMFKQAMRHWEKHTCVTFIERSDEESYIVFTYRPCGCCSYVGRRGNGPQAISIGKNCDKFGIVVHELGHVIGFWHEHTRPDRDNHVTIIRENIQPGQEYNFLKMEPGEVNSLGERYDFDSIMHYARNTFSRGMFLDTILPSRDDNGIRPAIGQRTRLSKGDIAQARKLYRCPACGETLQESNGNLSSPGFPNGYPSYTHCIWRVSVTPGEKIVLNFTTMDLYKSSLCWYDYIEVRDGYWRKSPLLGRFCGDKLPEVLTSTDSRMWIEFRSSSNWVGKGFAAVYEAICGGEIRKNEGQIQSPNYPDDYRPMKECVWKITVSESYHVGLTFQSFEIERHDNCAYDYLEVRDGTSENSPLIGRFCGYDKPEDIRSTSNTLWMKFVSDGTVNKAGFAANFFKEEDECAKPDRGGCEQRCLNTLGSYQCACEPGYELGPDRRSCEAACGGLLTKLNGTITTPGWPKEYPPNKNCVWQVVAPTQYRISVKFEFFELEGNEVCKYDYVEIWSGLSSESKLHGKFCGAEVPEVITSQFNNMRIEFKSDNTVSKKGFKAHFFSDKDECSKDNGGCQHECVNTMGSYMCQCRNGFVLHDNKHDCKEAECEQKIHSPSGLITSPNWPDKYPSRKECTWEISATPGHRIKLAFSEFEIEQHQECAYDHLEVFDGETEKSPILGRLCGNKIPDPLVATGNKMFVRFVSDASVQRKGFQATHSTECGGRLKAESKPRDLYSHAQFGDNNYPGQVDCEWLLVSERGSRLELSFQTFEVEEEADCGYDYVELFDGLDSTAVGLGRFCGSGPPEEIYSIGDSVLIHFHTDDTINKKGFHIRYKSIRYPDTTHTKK

[2] = molecular target: T2, Recombinant human bone morphogenetic protein-1 (BMP-1) with a C-terminal FLAG tag (human) (UniProt P13497); experiment: as above
T2 sequence: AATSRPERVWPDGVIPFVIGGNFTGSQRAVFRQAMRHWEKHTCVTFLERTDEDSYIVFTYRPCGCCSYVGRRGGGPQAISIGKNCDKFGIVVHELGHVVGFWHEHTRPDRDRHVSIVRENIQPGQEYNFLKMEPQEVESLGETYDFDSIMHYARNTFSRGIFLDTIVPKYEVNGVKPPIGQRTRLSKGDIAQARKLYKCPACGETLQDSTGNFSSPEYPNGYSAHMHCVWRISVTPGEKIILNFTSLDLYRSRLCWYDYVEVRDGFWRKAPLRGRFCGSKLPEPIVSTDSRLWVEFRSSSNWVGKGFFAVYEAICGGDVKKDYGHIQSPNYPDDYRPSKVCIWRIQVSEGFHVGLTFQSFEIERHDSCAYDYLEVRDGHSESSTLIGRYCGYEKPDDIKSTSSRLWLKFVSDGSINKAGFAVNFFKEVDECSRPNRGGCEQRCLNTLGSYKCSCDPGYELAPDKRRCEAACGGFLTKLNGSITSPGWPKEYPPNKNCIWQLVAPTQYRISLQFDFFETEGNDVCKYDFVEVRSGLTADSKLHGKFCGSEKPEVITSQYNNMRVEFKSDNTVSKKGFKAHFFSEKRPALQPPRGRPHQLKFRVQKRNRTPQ

[3] = molecular target: T1, Recombinant human mammalian tolloid-like-1 (mTLL-1) with a C-terminal 6x-His tag (human); experiment: SPR; competition: C1q (10 nM) incubated 15 min at room temperature with or without C1s-C1r-C1r-C1s (10 nM) or MASP-2 (60 nM), MBL (10 nM) with or without MASP-2 (60 nM), then injected over immobilised BMP-1 (2,300 RU) or mTLL-1 (3,400 RU); 50 mM triethanolamine-HCl, 145 mM NaCl, 2 mM CaCl2, 0.005% P20, pH 7.4; both purified
[4] = molecular target: T2, Recombinant human bone morphogenetic protein-1 (BMP-1) with a C-terminal FLAG tag (human); experiment: as above
[5] = molecular target: T1, Recombinant human mammalian tolloid-like-1 (mTLL-1) with a C-terminal 6x-His tag (human); experiment: SPR; single injections over immobilised BMP-1 (2,300 RU) or mTLL-1 (1,120 or 310 RU): C1q CLR, C1q GR and MBL CRD at 500 nM; wt MBL, K55A and K55E at 16 nM; 50 mM triethanolamine-HCl, 145 mM NaCl, 2 mM CaCl2, 0.005% P20, pH 7.4; both purified
[6] = molecular target: T2, Recombinant human bone morphogenetic protein-1 (BMP-1) with a C-terminal FLAG tag (human); experiment: as above

binding [1]: binds
binding [2]: binds
binding [3]: binds
binding [4]: binds
binding [5]: binds
binding [6]: binds
Substance: Recombinant human mannose-binding lectin (MBL) (from UniProt P11226 21-248)
